# Test results as given in publication PMC8384837.
# Numbering of substitutions follows the chain as printed. Some of the results follow. For some of these results: At the low end of the ranking the order means little.
# Assays:
# Details in all cases: yeast three-hybrid, YBZ-1, SC-Leu-His + 0.5 mM 3-AT, 4 days
# [1] = target: T1, PUM1 PUF domain R5-RKQ C1007R + R1008K (Homo sapiens) (UniProt Q14671)
# T1 sequence: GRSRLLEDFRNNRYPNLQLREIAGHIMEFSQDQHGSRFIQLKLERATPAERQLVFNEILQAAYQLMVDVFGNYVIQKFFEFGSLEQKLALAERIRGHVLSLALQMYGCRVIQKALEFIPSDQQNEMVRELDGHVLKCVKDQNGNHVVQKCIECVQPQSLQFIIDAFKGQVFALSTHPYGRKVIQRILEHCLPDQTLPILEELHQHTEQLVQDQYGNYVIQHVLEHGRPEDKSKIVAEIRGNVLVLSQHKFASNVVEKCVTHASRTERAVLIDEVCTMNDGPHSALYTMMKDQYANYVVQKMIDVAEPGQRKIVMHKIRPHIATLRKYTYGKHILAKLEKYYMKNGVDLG
# [2] = target: T2, PUM1 PUF domain R5-RKS C1007R + R1008K + Q1011S (Homo sapiens) (UniProt Q14671)
# T2 sequence: T1 sequence with Q184S
# [3] = target: T3, PUM1 PUF domain R5-RKV C1007R + R1008K + Q1011V (UniProt Q14671)
# T3 sequence: T1 sequence with Q184V
# [4] = target: T4, PUM1 PUF domain R5-RLT C1007R + R1008L + Q1011T (UniProt Q14671)
# T4 sequence: T1 sequence with K181L, Q184T
# [5] = target: T5, PUM1 PUF domain R5-RMG C1007R + R1008M + Q1011G (UniProt Q14671)
# T5 sequence: T1 sequence with K181M, Q184G
# [6] = target: T6, PUM1 PUF domain R5-RMR C1007R + R1008M + Q1011R (UniProt Q14671)
# T6 sequence: T1 sequence with K181M, Q184R
# [7] = target: T7, PUM1 PUF domain R5-RMT C1007R + R1008M + Q1011T (UniProt Q14671)
# T7 sequence: T1 sequence with K181M, Q184T
# [8] = target: T8, PUM1 PUF domain R5-RMV C1007R + R1008M + Q1011V (UniProt Q14671)
# T8 sequence: T1 sequence with K181M, Q184V
# [9] = target: T9, PUM1 PUF domain R5-RMW C1007R + R1008M + Q1011W (UniProt Q14671)
# T9 sequence: T1 sequence with K181M, Q184W
# [10] = target: T10, PUM1 PUF domain R5-RNE C1007R + R1008N + Q1011E (Homo sapiens) (UniProt Q14671)
# T10 sequence: T1 sequence with K181N, Q184E
# [11] = target: T11, PUM1 PUF domain R5-RNL C1007R + R1008N + Q1011L (Homo sapiens) (UniProt Q14671)
# T11 sequence: T1 sequence with K181N, Q184L
# [12] = target: T12, PUM1 PUF domain R5-RNS C1007R + R1008N + Q1011S (Homo sapiens) (UniProt Q14671)
# T12 sequence: T1 sequence with K181N, Q184S
# [13] = target: T13, PUM1 PUF domain R5-RNT C1007R + R1008N + Q1011T (Homo sapiens) (UniProt Q14671)
# T13 sequence: T1 sequence with K181N, Q184T
# [14] = target: T14, PUM1 PUF domain R5-RNV C1007R + R1008N + Q1011V (UniProt Q14671)
# T14 sequence: T1 sequence with K181N, Q184V
# [15] = target: T15, PUM1 PUF domain R5-RPM C1007R + R1008P + Q1011M (UniProt Q14671)
# T15 sequence: T1 sequence with K181P, Q184M
# [16] = target: T16, PUM1 PUF domain R5-RQE C1007R + R1008Q + Q1011E (UniProt Q14671)
# T16 sequence: T1 sequence with K181Q, Q184E
# [17] = target: T17, PUM1 PUF domain R5-RQH C1007R + R1008Q + Q1011H (UniProt Q14671)
# T17 sequence: T1 sequence with K181Q, Q184H
# [18] = target: T18, PUM1 PUF domain R5-RQM C1007R + R1008Q + Q1011M (UniProt Q14671)
# T18 sequence: T1 sequence with K181Q, Q184M
# [19] = target: T19, PUM1 PUF domain R5-RQV C1007R + R1008Q + Q1011V (Homo sapiens) (UniProt Q14671)
# T19 sequence: T1 sequence with K181Q, Q184V
# [20] = target: T20, PUM1 PUF domain R5-RRI C1007R + Q1011I (Homo sapiens) (UniProt Q14671)
# T20 sequence: T1 sequence with K181R, Q184I
# [21] = target: T21, PUM1 PUF domain R5-RRY C1007R + Q1011Y (UniProt Q14671)
# T21 sequence: T1 sequence with K181R, Q184Y
# [22] = target: T22, PUM1 PUF domain R5-RSD C1007R + R1008S + Q1011D (UniProt Q14671)
# T22 sequence: T1 sequence with K181S, Q184D
# [23] = target: T23, PUM1 PUF domain R5-RSG C1007R + R1008S + Q1011G (UniProt Q14671)
# T23 sequence: T1 sequence with K181S, Q184G
# [24] = target: T24, PUM1 PUF domain R5-RSI C1007R + R1008S + Q1011I (UniProt Q14671)
# T24 sequence: T1 sequence with K181S, Q184I
# [25] = target: T25, PUM1 PUF domain R5-RSP C1007R + R1008S + Q1011P (UniProt Q14671)
# T25 sequence: T1 sequence with K181S, Q184P
# [26] = target: T26, PUM1 PUF domain R5-RSR C1007R + R1008S + Q1011R (Homo sapiens) (UniProt Q14671)
# T26 sequence: T1 sequence with K181S, Q184R
# [27] = target: T27, PUM1 PUF domain R5-RSS C1007R + R1008S + Q1011S (Homo sapiens) (UniProt Q14671)
# T27 sequence: T1 sequence with K181S, Q184S
# [28] = target: T28, PUM1 PUF domain R5-RTL C1007R + R1008T + Q1011L (UniProt Q14671)
# T28 sequence: T1 sequence with K181T, Q184L
# [29] = target: T29, PUM1 PUF domain R5-RTR C1007R + R1008T + Q1011R (UniProt Q14671)
# T29 sequence: T1 sequence with K181T, Q184R
# [30] = target: T30, PUM1 PUF domain R5-SGK C1007S + R1008G + Q1011K (UniProt Q14671)
# T30 sequence: T1 sequence with R180S, K181G, Q184K
# [31] = target: T31, PUM1 PUF domain R5-SGR C1007S + R1008G + Q1011R (Homo sapiens) (UniProt Q14671)
# T31 sequence: T1 sequence with R180S, K181G, Q184R
# [32] = target: T32, PUM1 PUF domain R5-SRL C1007S + Q1011L (Homo sapiens) (UniProt Q14671)
# T32 sequence: T1 sequence with R180S, K181R, Q184L
# [33] = target: T33, PUM1 PUF domain R5-SRT C1007S + Q1011T (Homo sapiens) (UniProt Q14671)
# T33 sequence: T1 sequence with R180S, K181R, Q184T
# [34] = target: T34, PUM1 PUF domain R5-SSR C1007S + R1008S + Q1011R (UniProt Q14671)
# T34 sequence: T1 sequence with R180S, K181S, Q184R
# [35] = target: T35, PUM1 PUF domain R5-TNG C1007T + R1008N + Q1011G (UniProt Q14671)
# T35 sequence: T1 sequence with R180T, K181N, Q184G
# [36] = target: T36, PUM1 PUF domain R5-TPR C1007T + R1008P + Q1011R (UniProt Q14671)
# T36 sequence: T1 sequence with R180T, K181P, Q184R
# [37] = target: T37, PUM1 PUF domain R5-TRL C1007T + Q1011L (UniProt Q14671)
# T37 sequence: T1 sequence with R180T, K181R, Q184L
# [38] = target: T38, PUM1 PUF domain R5-TRY C1007T + Q1011Y (Homo sapiens) (UniProt Q14671)
# T38 sequence: T1 sequence with R180T, K181R, Q184Y
# [39] = target: T39, PUM1 PUF domain R5-TTR C1007T + R1008T + Q1011R (Homo sapiens) (UniProt Q14671)
# T39 sequence: T1 sequence with R180T, K181T, Q184R
# [40] = target: T40, PUM1 PUF domain R5-VHL C1007V + R1008H + Q1011L (Homo sapiens) (UniProt Q14671)
# T40 sequence: T1 sequence with R180V, K181H, Q184L
# [41] = target: T41, PUM1 PUF domain R5-VRV C1007V + Q1011V (UniProt Q14671)
# T41 sequence: T1 sequence with R180V, K181R, Q184V
# [42] = target: T42, PUM1 PUF domain R5-VYF C1007V + R1008Y + Q1011F (UniProt Q14671)
# T42 sequence: T1 sequence with R180V, K181Y, Q184F
# [43] = target: T43, PUM1 PUF domain R5-WSR C1007W + R1008S + Q1011R (UniProt Q14671)
# T43 sequence: T1 sequence with R180W, K181S, Q184R
sequence,measurement,setting,value
GGCUAGAACUAGUGGAUCCCCCGGCGCCCGGCGGCUCGAGCCCGGGUAAGUGUGAAUAGUCUGCAUGCCGCCGGGCGCCAUGCCUGCAGGUCGACUCUAGAAAACAUG,binding signal (log2 enrichment (interaction score)),[1],0.72
same,binding signal (log2 enrichment (interaction score)),[2],0.4
same,binding signal (log2 enrichment (interaction score)),[3],-3.69
same,binding signal (log2 enrichment (interaction score)),[4],-6.03
same,binding signal (log2 enrichment (interaction score)),[5],-3.25
same,binding signal (log2 enrichment (interaction score)),[6],-6.04
same,binding signal (log2 enrichment (interaction score)),[7],-5.4
same,binding signal (log2 enrichment (interaction score)),[8],-4.75
same,binding signal (log2 enrichment (interaction score)),[9],-3.1
same,binding signal (log2 enrichment (interaction score)),[10],0.01
same,binding signal (log2 enrichment (interaction score)),[11],-1.99
same,binding signal (log2 enrichment (interaction score)),[12],0.34
same,binding signal (log2 enrichment (interaction score)),[13],-1.13
same,binding signal (log2 enrichment (interaction score)),[14],-3.76
same,binding signal (log2 enrichment (interaction score)),[15],-3.89
same,binding signal (log2 enrichment (interaction score)),[16],-3.64
same,binding signal (log2 enrichment (interaction score)),[17],-2.62
same,binding signal (log2 enrichment (interaction score)),[18],< -9.81
same,binding signal (log2 enrichment (interaction score)),[19],-0.19
same,binding signal (log2 enrichment (interaction score)),[20],0.07
same,binding signal (log2 enrichment (interaction score)),[21],-3.11
same,binding signal (log2 enrichment (interaction score)),[22],-6.25
same,binding signal (log2 enrichment (interaction score)),[23],-2.19
same,binding signal (log2 enrichment (interaction score)),[24],-3.12
same,binding signal (log2 enrichment (interaction score)),[25],-3.75
same,binding signal (log2 enrichment (interaction score)),[26],0.1
same,binding signal (log2 enrichment (interaction score)),[27],-1.74
same,binding signal (log2 enrichment (interaction score)),[28],-4.81
same,binding signal (log2 enrichment (interaction score)),[29],-3.78
same,binding signal (log2 enrichment (interaction score)),[30],-4.17
same,binding signal (log2 enrichment (interaction score)),[31],-0.56
same,binding signal (log2 enrichment (interaction score)),[32],-0.05
same,binding signal (log2 enrichment (interaction score)),[33],-1.01
same,binding signal (log2 enrichment (interaction score)),[34],-3.59
same,binding signal (log2 enrichment (interaction score)),[35],-5.24
same,binding signal (log2 enrichment (interaction score)),[36],< -7.06
same,binding signal (log2 enrichment (interaction score)),[37],-2.44
same,binding signal (log2 enrichment (interaction score)),[38],-0.72
same,binding signal (log2 enrichment (interaction score)),[39],-2.03
same,binding signal (log2 enrichment (interaction score)),[40],-1.34
same,binding signal (log2 enrichment (interaction score)),[41],-4.35
same,binding signal (log2 enrichment (interaction score)),[42],-5.45
same,binding signal (log2 enrichment (interaction score)),[43],< -9.99

# Some of the entries above, reformatted.
sequence | measurement | setting | value
GGCUAGAACUAGUGGAUCCCCCGGCGCCCGGCGGCUCGAGCCCGGGUAAGUGUGAAUAGUCUGCAUGCCGCCGGGCGCCAUGCCUGCAGGUCGACUCUAGAAAACAUG | binding signal (log2 enrichment (interaction score)) | [3] | -3.69
same | binding signal (log2 enrichment (interaction score)) | [36] | < -7.06
